These are yes or no findings as the source states them, for the method shown. Binding seen in cells or lysates may run through a third protein. Some results given as binding are weak or reduced against the parent protein; the word gives no strength.
How the values were obtained:
[1] = biological target: Toll-like receptor 4 (mouse (endogenous in neutrophils of C57BL/6 mice)) (UniProt Q9QUK6); assay: co-IP; anti-TLR4 antibody on protein G Dynabeads, 100 ug membrane proteins of isolated mouse neutrophils treated with PBS for 1 h, 15 min at room temperature; blot with anti-AXNA2
[2] = biological target: Toll-like receptor 4 (mouse (endogenous in neutrophils of C57BL/6 mice)) (UniProt Q9QUK6); assay: co-IP; protein G Dynabeads with antibody, lysates of circulating neutrophils isolated from sham, TBI and TBI + rA2 (1 mg/kg i.p. at 2 h) mice at 12 h after TBI; Western blot; precipitating antibody not named for this panel
[3] = biological target: Toll-like receptor 4 (mouse (endogenous in neutrophils of C57BL/6 mice)) (UniProt Q9QUK6); assay: co-IP; anti-TLR4 antibody on protein G Dynabeads, 100 ug membrane proteins of isolated mouse neutrophils treated with rA2 (2 ug/mL) for 1 h; blot with anti-AXNA2; only the binder purified

Amino acid sequences for entries named in this document (tags omitted). Residues count along the entry.
UniProt Q9QUK6, residues 26-835: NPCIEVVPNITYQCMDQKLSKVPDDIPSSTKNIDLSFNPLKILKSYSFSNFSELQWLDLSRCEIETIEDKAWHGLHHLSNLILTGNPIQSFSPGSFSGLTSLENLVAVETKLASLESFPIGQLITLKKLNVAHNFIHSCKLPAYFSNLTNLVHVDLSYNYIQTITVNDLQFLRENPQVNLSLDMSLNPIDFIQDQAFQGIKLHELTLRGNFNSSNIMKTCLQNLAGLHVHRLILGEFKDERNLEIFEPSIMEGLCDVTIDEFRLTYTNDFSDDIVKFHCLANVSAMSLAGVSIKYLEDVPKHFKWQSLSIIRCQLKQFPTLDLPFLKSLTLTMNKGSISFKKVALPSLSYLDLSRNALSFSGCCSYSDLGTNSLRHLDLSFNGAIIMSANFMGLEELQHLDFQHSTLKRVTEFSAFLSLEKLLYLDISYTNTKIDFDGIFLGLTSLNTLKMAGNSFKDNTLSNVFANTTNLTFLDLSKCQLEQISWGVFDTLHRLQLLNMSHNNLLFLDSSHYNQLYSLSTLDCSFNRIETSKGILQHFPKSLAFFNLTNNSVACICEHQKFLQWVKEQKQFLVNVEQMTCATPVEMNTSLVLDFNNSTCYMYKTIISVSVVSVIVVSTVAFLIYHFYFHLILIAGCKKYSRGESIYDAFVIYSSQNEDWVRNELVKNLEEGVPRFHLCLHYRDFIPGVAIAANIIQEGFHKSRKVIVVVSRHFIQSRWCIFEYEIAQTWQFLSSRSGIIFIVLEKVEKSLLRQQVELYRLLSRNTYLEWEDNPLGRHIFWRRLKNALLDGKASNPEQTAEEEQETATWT
UniProt P07356: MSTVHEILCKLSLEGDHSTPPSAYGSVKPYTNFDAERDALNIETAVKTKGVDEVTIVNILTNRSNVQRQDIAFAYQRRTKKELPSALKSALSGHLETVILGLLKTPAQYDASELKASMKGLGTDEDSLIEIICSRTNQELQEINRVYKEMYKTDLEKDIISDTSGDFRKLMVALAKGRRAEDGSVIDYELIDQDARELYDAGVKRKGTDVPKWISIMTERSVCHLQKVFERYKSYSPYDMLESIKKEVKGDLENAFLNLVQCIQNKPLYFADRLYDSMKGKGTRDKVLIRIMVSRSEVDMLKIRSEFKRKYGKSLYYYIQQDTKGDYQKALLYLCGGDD
UniProt P07355: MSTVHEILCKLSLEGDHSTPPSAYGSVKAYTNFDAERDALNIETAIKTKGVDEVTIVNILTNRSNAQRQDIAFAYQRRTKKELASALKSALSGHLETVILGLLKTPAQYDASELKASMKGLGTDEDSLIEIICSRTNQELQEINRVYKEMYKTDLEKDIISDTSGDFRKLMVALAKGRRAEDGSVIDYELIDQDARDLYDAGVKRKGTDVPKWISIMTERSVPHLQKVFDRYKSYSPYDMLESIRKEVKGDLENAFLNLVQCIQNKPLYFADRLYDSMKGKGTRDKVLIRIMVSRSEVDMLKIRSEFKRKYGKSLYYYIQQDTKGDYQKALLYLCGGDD
UniProt P22366: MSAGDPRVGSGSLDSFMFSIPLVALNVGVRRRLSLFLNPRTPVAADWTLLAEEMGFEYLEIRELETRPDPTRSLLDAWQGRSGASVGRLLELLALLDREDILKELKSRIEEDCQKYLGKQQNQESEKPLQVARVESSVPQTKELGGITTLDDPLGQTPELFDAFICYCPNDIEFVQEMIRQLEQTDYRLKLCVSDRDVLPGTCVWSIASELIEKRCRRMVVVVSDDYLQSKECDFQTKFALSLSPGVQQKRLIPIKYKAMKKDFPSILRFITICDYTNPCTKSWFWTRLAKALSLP

Molecule	binding [2]	also measured
annexin A2 (endogenous, neutrophil membrane) (from UniProt P07356 1-339)		binding [1]: binds
recombinant annexin A2 (from UniProt P07355 1-339)		binding [3]: binds

The next lines start with results.

binding [2]	Molecule	also measured
binds	MyD88 (from UniProt P22366 1-296)	
binds	TRIF (protein, UniProt Q80UF7 1-732) MDNPGPSLRGAFGILGALERDRLTHLKHKLGSLCSGSQESKLLHAMVLLALGQDTEARVSLESLKMNTVAQLVAHQWADMETTEGPEEPPDLSWTVARLYHLLAEENLCPASTRDMAYQVALRDFASQGDHQLGQLQNEAWDRCSSDIKGDPSGFQPLHSHQGSLQPPSASPAVTRSQPRPIDTPDWSWGHTLHSTNSTASLASHLEISQSPTLAFLSSHHGTHGPSKLCNTPLDTQEPQLVPEGCQEPEEISWPPSVETSVSLGLPHEISVPEVSPEEASPILPDALAAPDTSVHCPIECTELSTNSRSPLTSTTESVGKQWPITSQRSPQVPVGDDSLQNTTSSSPPAQPPSLQASPKLPPSPLSSASSPSSYPAPPTSTSPVLDHSETSDQKFYNFVVIHARADEQVALRIREKLETLGVPDGATFCEEFQVPGRGELHCLQDAIDHSGFTILLLTASFDCSLSLHQINHALMNSLTQSGRQDCVIPLLPLECSQAQLSPDTTRLLHSIVWLDEHSPIFARKVANTFKTQKLQAQRVRWKKAQEARTLKEQSIQLEAERQNVAAISAAYTAYVHSYRAWQAEMNKLGVAFGKNLSLGTPTPSWPGCPQPIPSHPQGGTPVFPYSPQPPSFPQPPCFPQPPSFPQPPSFPLPPVSSPQSQSFPSASSPAPQTPGPQPLIIHHAQMVQLGVNNHMWGHTGAQSSDDKTECSENPCMGPLTDQGEPLLETPE	
